# Measurements as given in patent publication US6403354.
# The exact form of at least one protein or probe is not confirmed.
# Test system: BstYI restriction endonuclease (Bacillus stearothermophilus Y406)
# Experiment: enzyme reaction in vitro
# Settings: N6-methyladenine in GATC (Dam); Dam methylation does not confer resistance to BstYI digestion; purified recombinant protein; only the motif is given
sequence,measurement,value
GATC (double strand) [Dam-methylated GATC DNA],activity on this sequence,active
